From US10011573B2, “Human androgen receptor DNA-binding domain (DBD) compounds as therapeutics and methods for their use” (The University of British Columbia, priority 2014, dated 2018)
Some results were stated once for a whole list of compounds, not compound by compound.

Columns and labels:
AR-V7 = biological target: T1, AR-V7 (Homo sapiens, UniProt P10275); assay: ARR3tk-luciferase reporter assay in PC3 cells, splice variant AR-V7; assay type: cell-based
T1 construct: expressed in transfected cells; host or cells: PC3
T1 sequence (P10275 1-644 isoform P10275-3): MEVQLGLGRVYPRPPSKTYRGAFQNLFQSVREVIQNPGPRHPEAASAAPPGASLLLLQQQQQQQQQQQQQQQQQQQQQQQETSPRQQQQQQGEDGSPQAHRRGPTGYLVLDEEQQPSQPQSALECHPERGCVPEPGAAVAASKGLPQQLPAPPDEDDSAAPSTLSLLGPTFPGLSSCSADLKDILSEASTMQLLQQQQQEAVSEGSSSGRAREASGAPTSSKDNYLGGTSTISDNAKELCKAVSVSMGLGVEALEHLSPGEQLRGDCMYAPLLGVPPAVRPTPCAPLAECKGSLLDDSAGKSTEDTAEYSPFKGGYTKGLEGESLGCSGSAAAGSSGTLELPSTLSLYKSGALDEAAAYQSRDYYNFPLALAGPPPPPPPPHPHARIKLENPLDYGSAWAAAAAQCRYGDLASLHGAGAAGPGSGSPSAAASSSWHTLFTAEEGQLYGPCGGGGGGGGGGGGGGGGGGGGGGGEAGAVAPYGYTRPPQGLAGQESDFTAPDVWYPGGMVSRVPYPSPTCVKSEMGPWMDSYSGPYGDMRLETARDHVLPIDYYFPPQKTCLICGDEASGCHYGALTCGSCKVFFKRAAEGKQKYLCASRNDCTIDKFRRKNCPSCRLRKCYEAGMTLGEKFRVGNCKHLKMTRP
Excerpt: Full-length human AR (hARWT) or splice variant (AR-V7) was encoded on a pcDNA3.1 expression plasmid.

AR v567es = assay: ARR3tk-luciferase assay in R1-D567 cells; assay type: cell-based, human

Which “maximum inhibition, transiently expressed V7” value (AR-V7) does the source give for `c1ccc(-c2csc(N3CCOCC3)n2)cc1` [Compound 14228, 4-(4-phenylthiazol-2-yl)morpholine] here?
Its value is 70-90%.

And the “maximum inhibition, endogenously produced V567es” value (AR v567es)?
The value was 50-70%.
